In patent publication US12729225B2, “Non-canonical SWI/SNF complex and uses thereof” (Dana-Farber Cancer Institute, Inc., priority 2018, dated 2026) one finds Total and Unique data, which are given here for 3 molecules.

This data set has as its system mSWI/SNF complexes. Briefly: mSWI/SNF complex purification with HA-tagged baits and mass spectrometry (peptide counts). Details: species or system human.
[1] abbreviates: 293_HA-BRD7: HA-BRD7 bait purification, total peptide count per co-purified protein.
Setting [2] is: 293_HA-BRD7: HA-BRD7 bait purification, unique peptide count per co-purified protein.
The mark [3] stands for this setting: total peptide count of the co-purified protein, 293_HA-BRD9 (HA-BRD9 bait, mass spectrometry), Table 3b.
Setting [4] is: unique peptide count of the co-purified protein, 293_HA-BRD9 (HA-BRD9 bait, mass spectrometry), Table 3b.

B1: RBM15 (protein, UniProt Q96T37 1-977, looked up)
RNA-binding protein 15: MRTAGRDPVPRRSPRWRRAVPLCETSAGRRVTQLRGDDLRRPATMKGKERSPVKAKRSRGGEDSTSRGERSKKLGGSGGSNGSSSGKTDSGGGSRRSLHLDKSSSRGGSREYDTGGGSSSSRLHSYSSPSTKNSSGGGESRSSSRGGGGESRSSGAASSAPGGGDGAEYKTLKISELGSQLSDEAVEDGLFHEFKRFGDVSVKISHLSGSGSGDERVAFVNFRRPEDARAAKHARGRLVLYDRPLKIEAVYVSRRRSRSPLDKDTYPPSASVVGASVGGHRHPPGGGGGQRSLSPGGAALGYRDYRLQQLALGRLPPPPPPPLPRDLERERDYPFYERVRPAYSLEPRVGAGAGAAPFREVDEISPEDDQRANRTLFLGNLDITVTESDLRRAFDRFGVITEVDIKRPSRGQTSTYGFLKFENLDMSHRAKLAMSGKIIIRNPIKIGYGKATPTTRLWVGGLGPWVPLAALAREFDRFGTIRTIDYRKGDSWAYIQYESLDAAHAAWTHMRGFPLGGPDRRLRVDFADTEHRYQQQYLQPLPLTHYELVTDAFGHRAPDPLRGARDRTPPLLYRDRDRDLYPDSDWVPPPPPVRERSTRTAATSVPAYEPLDSLDRRRDGWSLDRDRGDRDLPSSRDQPRKRRLPEESGGRHLDRSPESDRPRKRHCAPSPDRSPELSSSRDRYNSDNDRSSRLLLERPSPIRDRRGSLEKSQGDKRDRKNSASAERDRKHRTTAPTEGKSPLKKEDRSDGSAPSTSTASSKLKSPSQKQDGGTAPVASASPKLCLAWQGMLLLKNSNFPSNMHLLQGDLQVASSLLVEGSTGGKVAQLKITQRLRLDQPKLDEVTRRIKVAGPNGYAILLAVPGSSDSRSSSSSAASDTATSTQRPLRNLVSYLKQKQAAGVISLPVGGNKDKENTGVLHAFPPCEFSQQFLDSPAKALAKSEEDYLVMIIVRGFGFQIGVRYENKKRENLALTLL
Take B1: the Total under setting [1] came out at 9 and the Total under setting [3] is listed as 2. Besides, the Unique is recorded as 9 under setting [2] and 2 under setting [4].

B2: DDX28 (protein, UniProt Q9NUL7 1-540, looked up)
Probable ATP-dependent RNA …: MALTRPVRLFSLVTRLLLAPRRGLTVRSPDEPLPVVRIPVALQRQLEQRQSRRRNLPRPVLVRPGPLLVSARRPELNQPARLTLGRWERAPLASQGWKSRRARRDHFSIERAQQEAPAVRKLSSKGSFADLGLEPRVLHALQEAAPEVVQPTTVQSSTIPSLLRGRHVVCAAETGSGKTLSYLLPLLQRLLGQPSLDSLPIPAPRGLVLVPSRELAQQVRAVAQPLGRSLGLLVRDLEGGHGMRRIRLQLSRQPSADVLVATPGALWKALKSRLISLEQLSFLVLDEADTLLDESFLELVDYILEKSHIAEGPADLEDPFNPKAQLVLVGATFPEGVGQLLNKVASPDAVTTITSSKLHCIMPHVKQTFLRLKGADKVAELVHILKHRDRAERTGPSGTVLVFCNSSSTVNWLGYILDDHKIQHLRLQGQMPALMRVGIFQSFQKSSRDILLCTDIASRGLDSTGVELVVNYDFPPTLQDYIHRAGRVGRVGSEVPGTVISFVTHPWDVSLVQKIELAARRRRSLPGLASSVKEPLPQAT
Consider B2, for which the Total was 9 under setting [1] and 3 under setting [3]. Further, the Unique runs as follows: under setting [2], 9; under setting [4], 2.

B3: SLC25A13 (protein, UniProt Q9UJS0 2-675, looked up)
Electrogenic …: AAAKVALTKRADPAELRTIFLKYASIEKNGEFFMSPNDFVTRYLNIFGESQPNPKTVELLSGVVDQTKDGLISFQEFVAFESVLCAPDALFMVAFQLFDKAGKGEVTFEDVKQVFGQTTIHQHIPFNWDSEFVQLHFGKERKRHLTYAEFTQFLLEIQLEHAKQAFVQRDNARTGRVTAIDFRDIMVTIRPHVLTPFVEECLVAAAGGTTSHQVSFSYFNGFNSLLNNMELIRKIYSTLAGTRKDVEVTKEEFVLAAQKFGQVTPMEVDILFQLADLYEPRGRMTLADIERIAPLEEGTLPFNLAEAQRQKASGDSARPVLLQVAESAYRFGLGSVAGAVGATAVYPIDLVKTRMQNQRSTGSFVGELMYKNSFDCFKKVLRYEGFFGLYRGLLPQLLGVAPEKAIKLTVNDFVRDKFMHKDGSVPLAAEILAGGCAGGSQVIFTNPLEIVKIRLQVAGEITTGPRVSALSVVRDLGFFGIYKGAKACFLRDIPFSAIYFPCYAHVKASFANEDGQVSPGSLLLAGAIAGMPAASLVTPADVIKTRLQVAARAGQTTYSGVIDCFRKILREEGPKALWKGAGARVFRSSPQFGVTLLTYELLQRWFYIDFGGVKPMGSEPVPKSRINLPAPNPDHVGGYKLAVATFAGIENKFGLYLPLFKPSVSTSKAIGGGP
With B3, the Total by setting is: under setting [1], 14; under setting [3], 2. Also, the Unique was 14 under setting [2] and 2 under setting [4].
